Results on 40 targets are retold here after the supplement of paper PMC10849652.

By UniProt entry, the sequences of proteins in these tests, tags left out. Where a name states a change or a piece, a line headed by the entry shows the natural chain unless it says otherwise.
UniProt Q6UWJ1: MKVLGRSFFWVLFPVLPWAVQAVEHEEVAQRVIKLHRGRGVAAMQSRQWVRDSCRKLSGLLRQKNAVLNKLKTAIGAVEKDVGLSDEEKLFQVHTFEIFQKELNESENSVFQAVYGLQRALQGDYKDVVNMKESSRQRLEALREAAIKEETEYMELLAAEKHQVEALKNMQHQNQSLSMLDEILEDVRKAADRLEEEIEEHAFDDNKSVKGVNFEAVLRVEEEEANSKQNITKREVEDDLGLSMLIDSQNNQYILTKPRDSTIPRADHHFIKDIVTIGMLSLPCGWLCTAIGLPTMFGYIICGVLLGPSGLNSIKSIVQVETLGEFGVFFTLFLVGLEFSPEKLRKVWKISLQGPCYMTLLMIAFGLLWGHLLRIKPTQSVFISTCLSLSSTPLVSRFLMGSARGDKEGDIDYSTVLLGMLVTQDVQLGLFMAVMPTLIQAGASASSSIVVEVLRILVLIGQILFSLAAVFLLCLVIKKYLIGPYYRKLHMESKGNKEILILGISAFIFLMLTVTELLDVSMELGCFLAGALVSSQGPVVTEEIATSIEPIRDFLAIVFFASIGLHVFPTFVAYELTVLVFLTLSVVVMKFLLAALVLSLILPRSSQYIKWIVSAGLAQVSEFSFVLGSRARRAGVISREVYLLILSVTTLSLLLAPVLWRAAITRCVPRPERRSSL
UniProt Q9NX00: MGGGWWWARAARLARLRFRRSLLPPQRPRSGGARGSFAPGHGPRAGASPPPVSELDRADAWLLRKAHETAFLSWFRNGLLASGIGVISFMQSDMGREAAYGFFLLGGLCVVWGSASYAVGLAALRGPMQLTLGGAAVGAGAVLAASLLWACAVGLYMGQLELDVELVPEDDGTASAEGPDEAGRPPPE
UniProt Q8TDI8: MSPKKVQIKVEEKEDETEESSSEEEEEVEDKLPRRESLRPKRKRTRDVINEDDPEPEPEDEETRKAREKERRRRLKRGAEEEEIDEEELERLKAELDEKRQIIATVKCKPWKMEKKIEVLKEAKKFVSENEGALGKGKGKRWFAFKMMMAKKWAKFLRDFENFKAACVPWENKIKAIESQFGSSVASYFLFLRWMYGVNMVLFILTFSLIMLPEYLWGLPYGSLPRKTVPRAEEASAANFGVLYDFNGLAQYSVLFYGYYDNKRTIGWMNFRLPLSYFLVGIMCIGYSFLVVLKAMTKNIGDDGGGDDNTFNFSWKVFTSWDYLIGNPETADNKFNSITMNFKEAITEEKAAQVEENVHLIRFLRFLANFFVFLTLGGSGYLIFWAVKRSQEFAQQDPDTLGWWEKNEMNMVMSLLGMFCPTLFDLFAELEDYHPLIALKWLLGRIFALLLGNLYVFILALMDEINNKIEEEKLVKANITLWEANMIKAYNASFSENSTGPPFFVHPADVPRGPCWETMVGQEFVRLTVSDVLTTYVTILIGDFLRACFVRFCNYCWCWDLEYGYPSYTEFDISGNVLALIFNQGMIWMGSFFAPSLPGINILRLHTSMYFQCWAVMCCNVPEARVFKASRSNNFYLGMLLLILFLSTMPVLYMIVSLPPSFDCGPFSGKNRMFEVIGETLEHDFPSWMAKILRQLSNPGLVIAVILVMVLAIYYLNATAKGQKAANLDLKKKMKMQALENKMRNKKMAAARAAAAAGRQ
UniProt Q9Y5J6: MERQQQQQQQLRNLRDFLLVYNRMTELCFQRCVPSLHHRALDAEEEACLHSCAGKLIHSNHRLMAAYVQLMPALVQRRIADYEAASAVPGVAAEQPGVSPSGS
UniProt Q9NS93: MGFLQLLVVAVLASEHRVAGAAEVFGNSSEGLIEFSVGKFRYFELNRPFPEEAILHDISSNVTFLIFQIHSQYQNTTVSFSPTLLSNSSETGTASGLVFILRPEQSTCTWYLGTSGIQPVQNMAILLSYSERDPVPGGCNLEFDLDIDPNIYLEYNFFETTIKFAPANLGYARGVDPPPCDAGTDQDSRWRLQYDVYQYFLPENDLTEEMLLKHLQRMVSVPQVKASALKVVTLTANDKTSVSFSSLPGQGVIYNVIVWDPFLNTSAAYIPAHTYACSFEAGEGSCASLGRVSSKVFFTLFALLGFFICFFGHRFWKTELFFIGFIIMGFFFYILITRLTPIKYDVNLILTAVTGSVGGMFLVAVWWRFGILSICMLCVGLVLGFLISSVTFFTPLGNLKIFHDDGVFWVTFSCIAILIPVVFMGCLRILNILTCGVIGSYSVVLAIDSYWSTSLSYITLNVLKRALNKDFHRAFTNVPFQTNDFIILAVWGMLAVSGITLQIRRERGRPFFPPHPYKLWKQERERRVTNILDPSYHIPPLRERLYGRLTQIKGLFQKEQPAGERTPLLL
UniProt Q7Z403: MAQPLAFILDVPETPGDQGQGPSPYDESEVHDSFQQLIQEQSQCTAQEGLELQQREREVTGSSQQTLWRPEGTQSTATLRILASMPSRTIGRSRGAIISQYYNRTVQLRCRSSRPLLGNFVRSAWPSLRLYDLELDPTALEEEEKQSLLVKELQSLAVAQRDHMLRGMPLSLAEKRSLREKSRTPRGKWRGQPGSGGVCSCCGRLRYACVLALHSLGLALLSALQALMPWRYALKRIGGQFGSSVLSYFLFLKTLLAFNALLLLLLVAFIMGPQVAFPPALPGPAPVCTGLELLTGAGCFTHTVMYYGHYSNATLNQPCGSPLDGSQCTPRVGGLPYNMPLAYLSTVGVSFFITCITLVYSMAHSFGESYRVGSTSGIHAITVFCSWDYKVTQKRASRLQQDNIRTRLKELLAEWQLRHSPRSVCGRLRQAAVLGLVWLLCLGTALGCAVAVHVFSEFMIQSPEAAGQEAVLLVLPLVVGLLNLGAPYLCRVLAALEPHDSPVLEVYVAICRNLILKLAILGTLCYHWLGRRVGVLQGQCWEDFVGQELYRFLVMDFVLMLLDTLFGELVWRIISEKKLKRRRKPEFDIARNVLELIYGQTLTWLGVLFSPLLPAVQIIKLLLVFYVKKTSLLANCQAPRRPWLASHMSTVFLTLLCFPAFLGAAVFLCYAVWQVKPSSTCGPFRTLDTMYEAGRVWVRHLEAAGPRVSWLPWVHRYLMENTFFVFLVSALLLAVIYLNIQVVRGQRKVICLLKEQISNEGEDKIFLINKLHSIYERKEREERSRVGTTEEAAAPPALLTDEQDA
UniProt Q96EK4, whole entry, looked up: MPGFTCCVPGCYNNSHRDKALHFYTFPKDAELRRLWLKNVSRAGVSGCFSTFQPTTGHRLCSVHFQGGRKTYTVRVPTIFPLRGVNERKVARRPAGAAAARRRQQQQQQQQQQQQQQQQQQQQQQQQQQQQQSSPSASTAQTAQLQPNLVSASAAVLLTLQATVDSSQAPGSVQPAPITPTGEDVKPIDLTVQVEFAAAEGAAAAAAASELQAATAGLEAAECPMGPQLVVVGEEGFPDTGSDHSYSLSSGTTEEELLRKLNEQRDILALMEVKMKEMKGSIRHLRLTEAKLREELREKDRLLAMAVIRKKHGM
UniProt Q3LXA3: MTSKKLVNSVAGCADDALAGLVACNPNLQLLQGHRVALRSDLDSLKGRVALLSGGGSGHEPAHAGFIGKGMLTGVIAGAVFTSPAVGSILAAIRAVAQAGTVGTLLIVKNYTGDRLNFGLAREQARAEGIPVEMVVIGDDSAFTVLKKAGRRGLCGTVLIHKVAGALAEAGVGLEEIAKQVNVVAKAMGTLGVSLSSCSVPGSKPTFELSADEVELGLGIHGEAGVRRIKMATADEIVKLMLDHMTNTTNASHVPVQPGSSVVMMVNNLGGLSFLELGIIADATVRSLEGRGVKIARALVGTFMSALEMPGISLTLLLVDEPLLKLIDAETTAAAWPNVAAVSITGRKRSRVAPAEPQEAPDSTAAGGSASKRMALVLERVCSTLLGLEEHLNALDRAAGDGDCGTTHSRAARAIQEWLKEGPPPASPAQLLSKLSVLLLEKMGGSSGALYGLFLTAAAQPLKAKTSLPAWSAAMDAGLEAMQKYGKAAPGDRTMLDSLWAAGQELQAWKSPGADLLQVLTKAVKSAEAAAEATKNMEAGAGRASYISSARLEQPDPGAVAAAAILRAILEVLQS
UniProt Q9P2C4: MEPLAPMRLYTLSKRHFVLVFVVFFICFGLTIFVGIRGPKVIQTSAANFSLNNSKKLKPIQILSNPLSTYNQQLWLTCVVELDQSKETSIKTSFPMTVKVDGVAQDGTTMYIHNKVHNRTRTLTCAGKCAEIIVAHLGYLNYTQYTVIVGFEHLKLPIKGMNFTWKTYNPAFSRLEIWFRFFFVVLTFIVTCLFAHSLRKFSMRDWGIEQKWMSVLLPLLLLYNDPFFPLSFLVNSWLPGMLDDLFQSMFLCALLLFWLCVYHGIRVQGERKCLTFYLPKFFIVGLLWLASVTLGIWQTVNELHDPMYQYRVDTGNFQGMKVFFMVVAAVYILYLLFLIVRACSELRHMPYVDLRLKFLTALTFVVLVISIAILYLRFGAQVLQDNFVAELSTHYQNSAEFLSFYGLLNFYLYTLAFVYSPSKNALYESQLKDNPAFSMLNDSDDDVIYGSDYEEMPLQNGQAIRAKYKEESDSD
UniProt Q8TBQ9: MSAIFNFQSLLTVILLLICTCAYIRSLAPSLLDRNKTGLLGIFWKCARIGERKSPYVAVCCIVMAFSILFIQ
UniProt Q8NE00: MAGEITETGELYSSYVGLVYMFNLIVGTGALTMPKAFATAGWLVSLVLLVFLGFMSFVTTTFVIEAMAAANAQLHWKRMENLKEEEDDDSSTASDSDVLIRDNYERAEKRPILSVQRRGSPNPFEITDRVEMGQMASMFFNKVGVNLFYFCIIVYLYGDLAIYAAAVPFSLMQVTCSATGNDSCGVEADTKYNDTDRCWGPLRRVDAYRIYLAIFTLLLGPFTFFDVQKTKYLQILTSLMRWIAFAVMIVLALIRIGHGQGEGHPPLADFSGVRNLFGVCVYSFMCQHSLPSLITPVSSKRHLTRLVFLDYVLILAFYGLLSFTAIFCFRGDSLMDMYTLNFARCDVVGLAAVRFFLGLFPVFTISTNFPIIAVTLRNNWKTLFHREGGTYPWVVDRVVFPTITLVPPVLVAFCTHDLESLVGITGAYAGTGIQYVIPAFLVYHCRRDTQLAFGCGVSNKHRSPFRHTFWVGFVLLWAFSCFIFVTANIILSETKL
UniProt Q9P0S9: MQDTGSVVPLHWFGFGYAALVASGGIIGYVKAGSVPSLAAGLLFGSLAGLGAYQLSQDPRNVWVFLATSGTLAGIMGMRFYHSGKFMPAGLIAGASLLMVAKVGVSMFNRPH
UniProt Q8NDZ6: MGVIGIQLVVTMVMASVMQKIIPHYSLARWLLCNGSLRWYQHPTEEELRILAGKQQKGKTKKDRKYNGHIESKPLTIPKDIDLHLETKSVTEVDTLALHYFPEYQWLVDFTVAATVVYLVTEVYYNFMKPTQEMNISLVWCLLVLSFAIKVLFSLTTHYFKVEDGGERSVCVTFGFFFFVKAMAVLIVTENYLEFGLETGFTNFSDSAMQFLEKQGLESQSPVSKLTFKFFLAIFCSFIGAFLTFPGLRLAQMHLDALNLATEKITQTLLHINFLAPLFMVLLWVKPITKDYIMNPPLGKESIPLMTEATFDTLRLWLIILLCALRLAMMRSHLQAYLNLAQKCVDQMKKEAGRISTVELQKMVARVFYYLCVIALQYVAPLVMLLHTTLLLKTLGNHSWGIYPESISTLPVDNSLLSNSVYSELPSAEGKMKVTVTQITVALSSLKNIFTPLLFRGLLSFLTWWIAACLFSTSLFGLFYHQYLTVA
UniProt Q96AN5: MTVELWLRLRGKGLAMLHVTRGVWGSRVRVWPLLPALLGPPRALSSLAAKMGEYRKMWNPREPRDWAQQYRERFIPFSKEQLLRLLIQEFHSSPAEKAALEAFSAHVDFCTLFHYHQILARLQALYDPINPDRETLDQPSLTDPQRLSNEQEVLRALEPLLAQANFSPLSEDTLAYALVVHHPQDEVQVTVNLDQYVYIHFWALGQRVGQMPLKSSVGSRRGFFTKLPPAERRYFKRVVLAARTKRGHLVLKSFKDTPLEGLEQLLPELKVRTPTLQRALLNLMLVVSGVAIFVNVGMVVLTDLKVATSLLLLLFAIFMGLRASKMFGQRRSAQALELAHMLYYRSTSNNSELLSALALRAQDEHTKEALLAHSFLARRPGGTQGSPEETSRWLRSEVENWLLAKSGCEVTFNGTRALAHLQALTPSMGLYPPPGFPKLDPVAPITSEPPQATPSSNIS
UniProt P62072: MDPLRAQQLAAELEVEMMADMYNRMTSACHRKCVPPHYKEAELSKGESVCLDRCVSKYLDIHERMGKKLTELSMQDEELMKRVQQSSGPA
UniProt Q01085: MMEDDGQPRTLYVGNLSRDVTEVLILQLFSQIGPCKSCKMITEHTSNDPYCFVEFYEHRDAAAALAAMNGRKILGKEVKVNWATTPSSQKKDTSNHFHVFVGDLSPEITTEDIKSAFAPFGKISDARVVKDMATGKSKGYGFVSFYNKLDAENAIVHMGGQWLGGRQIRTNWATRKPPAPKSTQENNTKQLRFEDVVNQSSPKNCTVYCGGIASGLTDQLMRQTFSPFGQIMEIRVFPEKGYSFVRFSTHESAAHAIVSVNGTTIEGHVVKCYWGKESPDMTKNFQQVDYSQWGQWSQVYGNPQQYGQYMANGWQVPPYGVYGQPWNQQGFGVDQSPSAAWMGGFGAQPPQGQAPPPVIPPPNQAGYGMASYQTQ

Some of the results follow.

Compound in one assay: CNC(=O)c1ccc(Nc2ncc(C(F)(F)F)c(NCc3nccnc3N(C)S(C)(=O)=O)n2)cc1 [defactinib]
Briefly: log2 fold change, soluble protein after heating vs DMSO (PISA); higher = thermal stabilisation; K562 lysate, 10 uM; active = over 0.2 and 3.5 SD of the protein, either way, in both replicates (recomputed). The method, boiled down: (§1)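 Thermal stability, expressed as log-two fold change relative to solvent controls, is given from duplicates. Crude K562 extract in PBS pH 7.4 with 1 mM MgCl2, at 1 mg/mL protein, was treated with 10 μM compound for 30 min and heated in aliquots for 3 min across 48°C-58°C. After pooling, adjustment to 0.5% NP-40 at 4°C and centrifugation at 21,000xg for 90 min, supernatant protein was measured by TMTpro 16plex LC-MS/MS with channel sums equalised.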
Turning to TMCO3 (UniProt Q6UWJ1), the log2 fold change is inactive: 0.107.
Still for that read-out and setting: the same measure for TMEM160 (UniProt Q9NX00): inactive: 0.106.
Same read-out and setting: the same measure for TIGAR (UniProt Q9NQ88): inactive: -0.133.
On the same count and under the same terms, the same measure for TMC1 (UniProt Q8TDI8): inactive: -0.002; for TIMM44 (UniProt O43615): inactive: 0.018.
Consider TK2 isoform 6 (UniProt O00142), for which the log2 fold change is inactive: 0.02.
Consider TK1 (UniProt K7ERV3), for which the log2 fold change was inactive: -0.024.
In the case of THAP9 (UniProt Q9H5L6), the log2 fold change is inactive: -0.067.
TIMM13 (UniProt Q9Y5L4): the log2 fold change is inactive: 0.001.
Still for that read-out and setting: as for TIMM10B (UniProt Q9Y5J6), the figure is inactive: 0.074; as for TM7SF3 (UniProt Q9NS93), inactive: 0.093.
The same measure, in the same setting: the same measure for TMED1 (UniProt Q13445): inactive: 0.003; for TMEM123 (UniProt Q8N131): inactive: -0.105; for TIMM21 (UniProt Q9BVV7): inactive: -0.016.
On the same count and under the same terms, as for TMEM120B (UniProt A0PK00), the figure is inactive: 0.119; as for TMC6 (UniProt Q7Z403), inactive: 0.094; as for TM6SF1 (UniProt Q9BZW5), inactive: 0.008.
THAP11 (UniProt Q96EK4): the log2 fold change is inactive: 0.029.
THOC7 (UniProt Q6I9Y2): the log2 fold change was inactive: 0.059.
On the same count and under the same terms, as for TKFC (UniProt Q3LXA3), the figure is inactive: 0; as for TMEM181 (UniProt Q9P2C4), inactive: -0.034.
Same read-out and setting: as for TK1 (UniProt P04183), the figure is inactive: -0.011; as for TMEM167A (UniProt Q8TBQ9), inactive: 0.02; as for TMEM104 (UniProt Q8NE00), inactive: -0.156.
Same read-out and setting: the same measure for TMEM14C (UniProt Q9P0S9): inactive: 0.205; for TJP1 (UniProt G3V1L9): inactive: 0.241.
Regarding TMEM161B (UniProt Q8NDZ6), the log2 fold change was inactive: 0.067.
Take TMEM143 (UniProt Q96AN5): the log2 fold change is inactive: 0.327.
On to TLR9 isoform 4 (UniProt Q9NR96), for which the log2 fold change was inactive: 0.
Still for that read-out and setting: the same measure for TMEM177 (UniProt Q53S58): inactive: -0.009; for TGM2 (UniProt P21980): inactive: -0.008; for TIMM10 (UniProt P62072): inactive: 0.047.
As to TMEM141 (UniProt Q96I45), the log2 fold change is inactive: 0.2.
Take TMED4 (UniProt Q7Z7H5): the log2 fold change was inactive: -0.011.
The same measure, in the same setting: as for TM9SF1 (UniProt O15321), the figure is inactive: -0.21; as for TMEM167B (UniProt Q9NRX6), inactive: 0.015; as for TMEM127 (UniProt O75204), inactive: -0.037.
For TKT isoform 2 (UniProt P29401), the log2 fold change is inactive: -0.004.
The same measure, in the same setting: the same measure for TGOLN2 isoform 7 (UniProt O43493): inactive: 0.005; for TIAL1 isoform 2 (UniProt Q01085): inactive: 0.006.

Compound in a further assay: CNc1nc(-c2ccc3c(N)n[nH]c3c2)cc(N2C[C@@H](C(=O)NC3CCCCC3)CC[C@H]2C)n1
The assay is described as above. The method, boiled down:
as §1
Consider TMEM160 (UniProt Q9NX00), for which the log2 fold change is inactive: -0.05.
On to TIGAR (UniProt Q9NQ88), for which the log2 fold change is inactive: -0.243.
Regarding TIMM44 (UniProt O43615), the log2 fold change is inactive: -0.017.
Still for that read-out and setting: as for TK2 isoform 6 (UniProt O00142), the figure is inactive: 0.08; as for TK1 (UniProt K7ERV3), inactive: 0.121.
On the same count and under the same terms, the same measure for THAP9 (UniProt Q9H5L6): inactive: 0.476; for TIMM13 (UniProt Q9Y5L4): inactive: 0.
TIMM10B (UniProt Q9Y5J6): the log2 fold change is inactive: 0.035.
Same read-out and setting: as for TM7SF3 (UniProt Q9NS93), the figure is inactive: 0.101.
With TMED1 (UniProt Q13445), the log2 fold change was inactive: 0.115.
TMEM123 (UniProt Q8N131): the log2 fold change is inactive: -0.273.
The same measure, in the same setting: the same measure for TIMM21 (UniProt Q9BVV7): inactive: -0.087; for TMEM120B (UniProt A0PK00): inactive: 0.317; for TM6SF1 (UniProt Q9BZW5): inactive: -0.019.
The same measure, in the same setting: the same measure for THAP11 (UniProt Q96EK4): inactive: 0.096; for THOC7 (UniProt Q6I9Y2): inactive: -0.012.
Still for that read-out and setting: the same measure for TKFC (UniProt Q3LXA3): inactive: 0.017.
Consider TMEM181 (UniProt Q9P2C4), for which the log2 fold change was inactive: -0.053.
Still for that read-out and setting: the same measure for TK1 (UniProt P04183): inactive: 0.032; for TMEM167A (UniProt Q8TBQ9): inactive: 0.007; for TMEM14C (UniProt Q9P0S9): inactive: 0.011.
Take TJP1 (UniProt G3V1L9): the log2 fold change is inactive: 0.119.
Same read-out and setting: as for TMEM143 (UniProt Q96AN5), the figure is inactive: 0.324; as for TLR9 isoform 4 (UniProt Q9NR96), inactive: -0.119; as for TGM2 (UniProt P21980), inactive: -0.035.
On the same count and under the same terms, the same measure for TIMM10 (UniProt P62072): inactive: -0.054; for TMEM141 (UniProt Q96I45): inactive: 0.105.
Turning to TMED4 (UniProt Q7Z7H5), the log2 fold change is inactive: 0.027.
On the same count and under the same terms, the same measure for TM9SF1 (UniProt O15321): inactive: -0.07; for TMEM127 (UniProt O75204): inactive: -0.099; for TKT isoform 2 (UniProt P29401): inactive: -0.011.
On the same count and under the same terms, as for TGOLN2 isoform 7 (UniProt O43493), the figure is inactive: 0.045; as for TIAL1 isoform 2 (UniProt Q01085), inactive: -0.005.
